From patent US6087336A (Zeneca Limited, priority 1996, dated 2000) come the findings set out here.

Where only a bound is given, the exact number is not on record here.

A short description of data set [1]: general procedure: Fmoc solid-phase peptide synthesis; Hydroxymethyl polystyrene resin; HBTU/HOBT/DIPEA; diisopropylcarbodiimide/HOBT on ACT 357. Particulars: whole synthesis, scale 1 mmol.
Data set [2] in a line: solid-phase peptide synthesis. Particulars: for final HPLC purity: RP-HPLC (Vydac C18 218TP54), scale of the general procedure 0.25 mmoles.
Data set [3] in a line: general procedure: Fmoc solid-phase peptide synthesis; Fmoc Rink Amide resin; HBTU/HOBT/DIPEA; diisopropylcarbodiimide/HOBT on ACT 357. Particulars: whole synthesis, scale 0.25 mmole.
A short description of data set [4]: general procedure: Fmoc solid-phase peptide synthesis; Fmoc Rink Amide MBHA resin; HBTU/HOBT/DIPEA; diisopropylcarbodiimide/HOBT on ACT 357. The conditions noted are these: whole synthesis, scale 0.25 mmol.

The substance “Phv-Arg-Ala-Ala-Ala-Thr-IIb-Ala-Papa-OMe” returned an isolated mass in data set [1] of 37 mg.
The substance Phv-Ala-Arg-Ala-Arg-Thr-IIb-Gly-NHEt gave an isolated mass in data set [2] (whole synthesis, scale 0.25 mmole) of 168 mg.
With Phv-Ala-Ala-Ala-Lys-Val-III-Ala-Pip-NH2, the “final HPLC purity” value in data set [2] (whole synthesis) was greater than 95% pure.
For the substance “Phv-Gap-Ala-Ala-Ala-Thr-IIb-Ala-Papa-NH2”, in data set [2] (late stage modification step), the difficulty met result is on record as “only 40% conversion to the corresponding Gap peptide. Attempted preparative RP-HPLC failed to completely separate”.
“Phv-Arg-Ala-Ala-Ala-Thr-IIb-Ala-Papa-NHCH2 CH2 -Morpholine” came in with an isolated mass in data set [1] of 40 mg.
Regarding Phv-Arg-Ala-Ala-Ala-Thr-IIb-Ala-Papa-OH, the isolated mass in data set [1] is listed as 155 mg.
As to “Phv-Dap-Ala-Ala-Ala-Thr-IIb-Ala-Papa-NH2”, in data set [3], the isolated mass is reported as 304 mg.
In data set [4], Phv-Ala-Ala-Ala-Lys-Val-IIb-Ala-Pip-NH2 had an isolated mass of 84 mg and an isolated yield of 35% yield. Besides, the “final HPLC purity” value in data set [2] (whole synthesis) is 100% purity.
